Source: PubChem BioAssay AID1259254 (NCATS, 2017)

Aim: 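Gene knock-downs that lead to re-replication, shown by excess G2 DNA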 (primary screen)
Cells: human HCT116 colorectal cancer cells
Reagent: single siRNA against human genes
Duration: 3 days
Detection: 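Imaged Hoechst DNA stain sorts each cell into a cycle phase by DNA amount; per plate, G2 fraction set to 0% for non-targeting and 100% for GMNN siRNA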
Scale: G2 robust z-score and G2 cells, % of GMNN control: higher = more G2 cells, more excess DNA replication
Hit rule: 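An siRNA counts as active if its G2 robust z-score lies at least 5 MADs above the screen median; here such calls match roughly 38% of GMNN control or more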
The deposit covers about 59,000 reagents; shown is a part drawn at random. Over the whole deposit, about 1,550 (2.6%) are marked active. 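G2 share is only a proxy for re-replication; each gene was hit by three separate siRNAs, and active genes were retested.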 The numbers tell different reagents against one gene apart. Further read-outs or replicates are left out here. Reagent sequences are not shown. Not given: the amount of reagent.

SHOC2 (GeneID 8036) #1 gave G2 robust z-score 1.28; G2 cells, % of GMNN control 12; inactive.
Silencing of SHOC2 (GeneID 8036) #2 came out at: G2 robust z-score -1.35; G2 cells, % of GMNN control -6.53; inactive.
Depletion of SHOC2 (GeneID 8036) #3 came out at: G2 robust z-score 2.25; G2 cells, % of GMNN control 18.8; inactive.
Against MRPL9 (GeneID 65005) #1, the values are G2 robust z-score 1.52; G2 cells, % of GMNN control 13.7; inactive.
MRPL9 (GeneID 65005) #2 showed G2 robust z-score 1.31; G2 cells, % of GMNN control 12.2; inactive.
Knock-down of MRPL9 (GeneID 65005) #3 gave: G2 robust z-score -1.13; G2 cells, % of GMNN control -4.97; inactive.
Silencing of SMARCD2 (GeneID 6603) #1 came out at: G2 robust z-score 6.22; G2 cells, % of GMNN control 46.7; active.
Against SMARCD2 (GeneID 6603) #2, the entry reads G2 robust z-score 1.5; G2 cells, % of GMNN control 13.5; inactive.
SMARCD2 (GeneID 6603) #3 scored G2 robust z-score 3.36; G2 cells, % of GMNN control 26.6; inactive.
OR52M1 (GeneID 119772) #1 scored G2 robust z-score 0.0744; G2 cells, % of GMNN control 3.49; inactive.
OR52M1 (GeneID 119772) #2 scored G2 robust z-score 1.38; G2 cells, % of GMNN control 12.6; inactive.
Against OR52M1 (GeneID 119772) #3, the entry reads G2 robust z-score 2.72; G2 cells, % of GMNN control 22.1; inactive.
Depletion of KDM2A (GeneID 22992) #1 resulted in: G2 robust z-score 0.273; G2 cells, % of GMNN control 4.89; inactive.
Depletion of KDM2A (GeneID 22992) #2 gave: G2 robust z-score 0.132; G2 cells, % of GMNN control 3.89; inactive.
KDM2A (GeneID 22992) #3 gave G2 robust z-score 1.74; G2 cells, % of GMNN control 15.2; inactive.
Against DCN (GeneID 1634) #1, the values are G2 robust z-score -0.486; G2 cells, % of GMNN control -0.454; inactive.
Knock-down of DCN (GeneID 1634) #2 gave: G2 robust z-score 2.56; G2 cells, % of GMNN control 21; inactive.
Against DCN (GeneID 1634) #3, the values are G2 robust z-score 2.47; G2 cells, % of GMNN control 20.3; inactive.
Depletion of SEBOX (GeneID 645832) #1 came out at: G2 robust z-score 1.81; G2 cells, % of GMNN control 15.7; inactive.
With knock-down of SEBOX (GeneID 645832) #2, the screen gave G2 robust z-score -0.0634; G2 cells, % of GMNN control 2.52; inactive.
SEBOX (GeneID 645832) #3 showed G2 robust z-score -1.03; G2 cells, % of GMNN control -4.27; inactive.
Depletion of GRAMD2B (GeneID 65983) #1 gave: G2 robust z-score -0.517; G2 cells, % of GMNN control -0.667; inactive.
Knock-down of GRAMD2B (GeneID 65983) #2 resulted in: G2 robust z-score 0.164; G2 cells, % of GMNN control 4.12; inactive.
After knock-down of GRAMD2B (GeneID 65983) #3, the record shows G2 robust z-score -0.446; G2 cells, % of GMNN control -0.171; inactive.
